# Assay results published in PubChem BioAssay AID504467 (National Center for Advancing Translational Sciences (NCATS), 2011).
# The campaign covered roughly 330,000 compounds. About 7,700 (2.3%) were called active. Inconclusive results, whose numbers are uncertain, are shown with a selection of clear calls. Calls come from the whole dose curve; as a rule, active = well fitted inhibition curve with a large enough effect; inconclusive = small, poorly fitted or top-dose-only effect, or effect the other way; inactive = flat fitted curve, though single readings scatter. Potencies beside an inconclusive call are fits to weak or partial responses and may not hold up.
# Assay: qHTS screen for small molecules that inhibit ELG1-dependent DNA repair in human embryonic kidney (HEK293T) cells expressing luciferase-tagged ELG1; note: nearly all actives have a fitted effect of over 55% in size
# Settings: HEK293T ELG1-luciferase reporter, luminescence, 16 h, DNA damage induced by 5-fluorouridine; series mostly up to 46.1 µM
# Procedure, shortened: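 Cells (2,000 per well) received 5-fluorouridine plus test compound or DMSO and were incubated 16 hr at 37 °C, 5% CO2. Luciferase activity was read by luminescence 30 min after ONE-Glo addition; signal suppression marked inhibition of damage-induced ELG1 function.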
# Potency is the fitted concentration of half-maximal effect.
row,SMILES,Potency
1,C[C@H]1CN([C@@H](C)CO)C(=O)c2cccc(NC(=O)c3ccc(-c4nccs4)cc3)c2O[C@@H]1CN(C)C(=O)Nc1cccc2ccccc12,"inconclusive: 0.206 µM [activator, single point]"
2,CCCCNC(=O)Nc1ccc(C(O)(C(=O)OC)C(F)(F)F)cc1 (configuration not stated),"inconclusive: 23.1 µM [activator, partial curve, poor fit]"
3,O=C(Nc1ccc(F)cc1F)c1cccn(Cc2ccccc2)c1=O,inactive
4,Cc1ccc(/C=C2\C(=O)NC(=O)N(CCc3ccc(F)cc3)C2=O)o1,"inconclusive: 20.6 µM [activator, partial curve]"
5,COc1ccc(CN2C(=O)NC(=O)/C(=C/c3ccc([N+](=O)[O-])o3)C2=O)cc1,"inconclusive: 3.66 µM [activator, single point]"
6,Cc1cc(OC(=O)c2cccs2)c2c3c(c(=O)oc2c1)CCCC3,inactive
7,CN1C(=O)N(C)C(=O)C2(Cc3c(nc4ccccn4c3=O)N3CCC(Cc4ccccc4)CC32)C1=O (configuration not stated),inactive
8,COc1ccc(CCNC(=O)c2c(N)n(CCN3CCOCC3)c3nc4ccccc4nc23)cc1OC,active: 16.4 µM
9,COC(=O)C1=C(c2cccc(OCc3ccccc3)c2)C[C@@H]2CC[C@H]1N2C(=O)NCc1ccc(C(F)(F)F)cc1,"inconclusive: 29.1 µM [inhibitor, single point]"
10,Cc1ccc(S(=O)(=O)N(C)c2ccc(C(=O)NCC3(N(C)C)CCCCC3)cc2)cc1,"inconclusive: 5.17 µM [activator, partial curve, poor fit]"
11,Cc1nonc1OCCNCCNc1ccc([N+](=O)[O-])c2cccnc12,inactive
12,Cc1cc(OCC(=O)N2CCC(C(=O)NCC(C)C)CC2)c2c3c(c(=O)oc2c1)CCCC3,inactive
13,CC(=O)Nc1ccc(CC(=O)N2CCN(Cc3ccccc3)CC2)cc1,inactive
14,O=C1NC(=O)C(=Cc2ccc(OCCOc3ccc([N+](=O)[O-])cc3)cc2)C(=O)N1,inactive
15,O=C1NC(=O)C(=Cc2coc3ccc(O)cc3c2=O)C(=O)N1,inactive
16,CSC(=Nc1ccccc1)c1c(O)n(C)c(=O)n(C)c1=O,"inconclusive: 28.2 µM [inhibitor, single point]"
17,COC(=O)C(O)(c1ccc(NC(=O)c2ccccc2)cc1)C(F)(F)F (configuration not stated),"inconclusive: 20.6 µM [activator, single point]"
18,COc1cccc(CN2CCCC(C(=O)c3ccccc3SC)C2)c1O (configuration not stated),"inconclusive: 29.1 µM [inhibitor, single point]"
19,COC(=O)c1[nH]c2ccc(C)cc2c1NC(=O)Oc1ccccc1,"inconclusive: 2.06 µM [activator, full curve]"
20,Cn1c(=O)cc(OCCCC(=O)N2CCC3(CC2)OCCO3)c2ccccc21,"inconclusive: 18.4 µM [activator, partial curve]"
21,N#C/C(=C\c1ccc(N2CCCCC2)c([N+](=O)[O-])c1)c1nn(-c2ccccc2)c(N)c1C#N,"inconclusive: 18.4 µM [inhibitor, single point]"

row,SMILES,Potency
1,C[C@]12CC[C@@H](O)CC1=CCC1C2CC[C@@]2(C)C1CC[C@@H]2N (some centres not stated),inactive
2,Cc1cc(C(=O)CN2C(=O)c3ccccc3C2=O)c(C)n1C1CC1,"inconclusive: 10.3 µM [activator, partial curve]"
3,COc1cccc(CN2CCCCC2c2cccnc2)c1 (configuration not stated),"inconclusive: 18.4 µM [inhibitor, partial curve, poor fit]"
4,O=C(NCCc1ccccc1)c1ccc2nccnc2c1,"inconclusive: 29.1 µM [activator, partial curve, poor fit]"
5,O=C(Nc1ccccc1OC(=O)N1CCOCC1)N1CCOCC1,inactive
6,O=c1[nH]c(=S)[nH]c(O)c1/C=C1/C=c2ccccc2=N1,"inconclusive: 29.1 µM [inhibitor, single point]"
7,O=c1c2ccccc2nc(/C=C/c2ccccc2)n1-c1ccccc1O,"inconclusive: 25.9 µM [inhibitor, single point]"
8,CCC(=NCCc1ccccc1)c1c(O)n(C2CCCCC2)c(=O)[nH]c1=O,"inconclusive: 23.1 µM [inhibitor, partial curve, poor fit]"
9,C[C@H](CO)N1C[C@H](C)[C@@H](CN(C)S(=O)(=O)c2cccs2)Oc2ccc(NC(=O)Nc3ccc4c(c3)OCO4)cc2C1=O,"inconclusive: 18.3 µM [inhibitor, single point]"
10,CCOc1cc(-c2nc3c(C)cccn3c2NCC2CCCO2)ccc1O (configuration not stated),"inconclusive: 29.1 µM [inhibitor, single point]"
11,COC(=O)C1=C(c2ccc(F)cc2OCc2ccccc2)C[C@@H]2CC[C@H]1N2C(=O)NCc1ccc([N+](=O)[O-])cc1,"inconclusive: 18.3 µM [inhibitor, single point]"
12,CN(C)c1ccc(NC(=O)CN2C3CCCC2CC(NC(=O)c2ccccc2)C3)cc1 (configuration not stated),"inconclusive: 32.6 µM [inhibitor, single point]"
13,O=C(Oc1ccc(-c2nnco2)cc1)N1CCCCC1,"inconclusive: 25.9 µM [activator, single point]"
14,OC1/C(=C/c2ccccc2F)N2CCC1CC2 (configuration not stated),inactive
15,Cc1cc(=O)n(-c2ccccc2)n1C,"inconclusive: 20.6 µM [activator, partial curve, poor fit]"
16,O=C1CSC2N1CCNC21CCCCC1 (configuration not stated),inactive
17,Cc1cc(/C=C2/C(=O)NC(=O)N(C)C2=O)c(C)n1-c1ccccc1,inactive
18,CC(=O)Nc1ccc2c(c1)CC1(C(=O)N(C)C(=O)N(C)C1=O)C1CCCN21 (configuration not stated),"inconclusive: 6.51 µM [inhibitor, partial curve, poor fit]"
19,CC1CCN(S(=O)(=O)c2ccc(NN=C(C#N)C#N)cc2)CC1,"inconclusive: 20.6 µM [inhibitor, single point]"
20,Cc1ccc(Cn2nnnc2CN2CCC(n3nnc4ccccc43)CC2)cc1,"inconclusive: 29.1 µM [inhibitor, single point]"
21,CCCCn1c(O)c(C(C)=NC(Cc2c[nH]c3ccccc23)C(=O)OC)c(=O)[nH]c1=O (configuration not stated),"inconclusive: 20.6 µM [inhibitor, single point]"

# Exported tab-delimited: entries from further up.
row	SMILES	Potency
2	Cc1cc(C(=O)CN2C(=O)c3ccccc3C2=O)c(C)n1C1CC1	inconclusive: 10.3 µM [activator, partial curve]
9	C[C@H](CO)N1C[C@H](C)[C@@H](CN(C)S(=O)(=O)c2cccs2)Oc2ccc(NC(=O)Nc3ccc4c(c3)OCO4)cc2C1=O	inconclusive: 18.3 µM [inhibitor, single point]
10	CCOc1cc(-c2nc3c(C)cccn3c2NCC2CCCO2)ccc1O (configuration not stated)	inconclusive: 29.1 µM [inhibitor, single point]
